Results deposited as PubChem BioAssay AID1259424 (University of Nebraska Medical Center, 2018).
Screen: 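Rank knockdowns across the genome by resemblance to the KSR1 depletion profile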 (primary screen). Cells: human HCT116 colon cancer cells. Reagent: siRNA pool against human genes, 50 nM. Measurement: 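Log2 levels of six mRNAs (branched-DNA multiplex), adjusted by two reference genes and the non-targeting median, then scored against the average KSR1 knockdown pattern as Pearson r and euclidean distance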. Direction: mean correlation with KSR1 profile and KSR1 correlation: higher = expression change more like KSR1 knockdown; mean distance from KSR1 profile: higher = expression change less like KSR1 knockdown.
Here is one part, drawn at random, of about 14,000 reagents tested. 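Higher correlation or smaller distance means closer resemblance to KSR1 loss; control wells, including KSR1 knockdowns, recur on many plates.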 Not given: the time to read-out.

gene symbol	mean correlation with KSR1 profile	mean distance from KSR1 profile	KSR1 correlation, replicate 1	KSR1 correlation, replicate 2	KSR1 correlation, replicate 3
ABCG4 (GeneID 64137)	0.805	1.41	0.798	0.72	0.606
DHX40 (GeneID 79665)	0.473	2.09	0.407	0.692	0.147
EID1 (GeneID 23741)	-0.172	2.14	0.0601	-0.393	-0.194
SLF1 (GeneID 84250)	-0.0079	2.18	-0.0615	0.0374	-0.0904
SLC39A3 (GeneID 29985)	-0.468	3.79	-0.476	-0.441	-0.583
RALA (GeneID 5898)	0.339	1.43	0.245	0.405	0.0918
PPP1R14B (GeneID 26472)	0.252	1.81	0.269	0.301	-0.0799
MAP2K7 (GeneID 5609)	0.91	0.865	0.783	0.929	0.77
SULT2B1 (GeneID 6820)	-0.12	3.2	-0.232	-0.2	0.178
SLIT1 (GeneID 6585)	-0.461	2.39	-0.634	-0.306	-0.322
SPAG6 (GeneID 9576)	-0.701	3.16	-0.688	-0.571	-0.656
SLC9A8 (GeneID 23315)	0.467	1.64	0.613	0.381	0.323
MGAT5 (GeneID 4249)	-0.112	1.62	-0.345	0.00491	-0.246
UGT2A3 (GeneID 79799)	0.297	1.57	0.291	0.352	0.304
TPTE2 (GeneID 93492)	0.335	1.92	0.41	0.252	0.144
NPM1 (GeneID 4869)	-0.151	2.29	-0.0653	-0.307	-0.176
CD55 (GeneID 1604)	-0.338	1.49	-0.318	-0.432	-0.409
TMTC4 (GeneID 84899)	-0.132	2.72	-0.225	0.101	-0.423
WFS1 (GeneID 7466)	-0.51	3.01	-0.633	-0.6	-0.224
ARHGEF17 (GeneID 9828)	0.203	2.29	0.397	0.196	0.217
MMP12 (GeneID 4321)	-0.276	3.13	-0.268	-0.197	-0.521
CYP20A1 (GeneID 57404)	-0.183	3.23	-0.352	-0.157	-0.0223
SPSB1 (GeneID 80176)	-0.521	2.51	-0.435	-0.598	-0.776
ATRNL1 (GeneID 26033)	0.0942	1.56	0.45	0.00115	-0.0971
PNMT (GeneID 5409)	0.405	3.44	0.525	0.253	0.432
P4HTM (GeneID 54681)	-0.284	2.25	-0.312	-0.325	-0.362
TIMELESS (GeneID 8914)	0.838	0.911	0.819	0.874	0.764
HPDL (GeneID 84842)	0.48	1.8	-0.349	0.113	0.5
MAD2L1BP (GeneID 9587)	-0.0825	1.77	-0.341	0.388	0.0335
TMEM160 (GeneID 54958)	0.233	4.85	0.305	0.235	0.132
MT-ND6 (GeneID 4541)	0.313	2.33	0.338	0.347	0.447
SPPL2B (GeneID 56928)	-0.218	2.36	-0.111	-0.165	0.123
OR1D2 (GeneID 4991)	0.489	1.47	0.563	0.547	0.534
TFR2 (GeneID 7036)	0.57	2.27	0.358	0.796	0.58
DAPK3 (GeneID 1613)	-0.13	2.38	-0.0608	-0.0469	-0.449
TBC1D9 (GeneID 23158)	-0.0878	2.54	0.0344	0.0554	-0.18
PPP2R5C (GeneID 5527)	-0.902	1.52	-0.527	-0.78	-0.916
SRP19 (GeneID 6728)	0.553	0.754	0.279	0.656	0.511
MEA1 (GeneID 4201)	-0.343	2.62	-0.298	-0.431	-0.42
SLC68A1 (GeneID 79847)	-0.227	2.61	-0.0753	0	-0.361
RAI14 (GeneID 26064)	0.298	2.36	0.449	0.127	0.441
SENP3 (GeneID 26168)	-0.136	4.31	0.0804	-0.108	-0.409
POLK (GeneID 51426)	-0.595	3.65	-0.671	-0.503	-0.443
ZNF839 (GeneID 55778)	0.641	3.02	0.69	0.346	0.603
TRIM37 (GeneID 4591)	-0.122	1.16	-0.446	-0.0504	-0.175
N4BP3 (GeneID 23138)	0.115	4.64	0.0642	0.47	-0.333
ILF2 (GeneID 3608)	-0.14	1.87	0.106	-0.36	-0.291
KLHL2 (GeneID 11275)	-0.582	2.08	-0.279	-0.702	-0.616
RRM2B (GeneID 50484)	0.367	1.19	0.304	0.395	0.397
KLHL20 (GeneID 27252)	0.141	1.68	0.263	0.268	0.141

Ordered by “mean correlation with KSR1 profile” (lowest first): some entries from above
gene symbol	mean correlation with KSR1 profile	mean distance from KSR1 profile	KSR1 correlation, replicate 1	KSR1 correlation, replicate 2	KSR1 correlation, replicate 3
SLC39A3 (GeneID 29985)	-0.468	3.79	-0.476	-0.441	-0.583
PPP1R14B (GeneID 26472)	0.252	1.81	0.269	0.301	-0.0799
RALA (GeneID 5898)	0.339	1.43	0.245	0.405	0.0918
